Data on two substances can be found in paper PMC7664263.

Chains of the proteins cited; added tags and fusions are not shown.
UniProt Q14980: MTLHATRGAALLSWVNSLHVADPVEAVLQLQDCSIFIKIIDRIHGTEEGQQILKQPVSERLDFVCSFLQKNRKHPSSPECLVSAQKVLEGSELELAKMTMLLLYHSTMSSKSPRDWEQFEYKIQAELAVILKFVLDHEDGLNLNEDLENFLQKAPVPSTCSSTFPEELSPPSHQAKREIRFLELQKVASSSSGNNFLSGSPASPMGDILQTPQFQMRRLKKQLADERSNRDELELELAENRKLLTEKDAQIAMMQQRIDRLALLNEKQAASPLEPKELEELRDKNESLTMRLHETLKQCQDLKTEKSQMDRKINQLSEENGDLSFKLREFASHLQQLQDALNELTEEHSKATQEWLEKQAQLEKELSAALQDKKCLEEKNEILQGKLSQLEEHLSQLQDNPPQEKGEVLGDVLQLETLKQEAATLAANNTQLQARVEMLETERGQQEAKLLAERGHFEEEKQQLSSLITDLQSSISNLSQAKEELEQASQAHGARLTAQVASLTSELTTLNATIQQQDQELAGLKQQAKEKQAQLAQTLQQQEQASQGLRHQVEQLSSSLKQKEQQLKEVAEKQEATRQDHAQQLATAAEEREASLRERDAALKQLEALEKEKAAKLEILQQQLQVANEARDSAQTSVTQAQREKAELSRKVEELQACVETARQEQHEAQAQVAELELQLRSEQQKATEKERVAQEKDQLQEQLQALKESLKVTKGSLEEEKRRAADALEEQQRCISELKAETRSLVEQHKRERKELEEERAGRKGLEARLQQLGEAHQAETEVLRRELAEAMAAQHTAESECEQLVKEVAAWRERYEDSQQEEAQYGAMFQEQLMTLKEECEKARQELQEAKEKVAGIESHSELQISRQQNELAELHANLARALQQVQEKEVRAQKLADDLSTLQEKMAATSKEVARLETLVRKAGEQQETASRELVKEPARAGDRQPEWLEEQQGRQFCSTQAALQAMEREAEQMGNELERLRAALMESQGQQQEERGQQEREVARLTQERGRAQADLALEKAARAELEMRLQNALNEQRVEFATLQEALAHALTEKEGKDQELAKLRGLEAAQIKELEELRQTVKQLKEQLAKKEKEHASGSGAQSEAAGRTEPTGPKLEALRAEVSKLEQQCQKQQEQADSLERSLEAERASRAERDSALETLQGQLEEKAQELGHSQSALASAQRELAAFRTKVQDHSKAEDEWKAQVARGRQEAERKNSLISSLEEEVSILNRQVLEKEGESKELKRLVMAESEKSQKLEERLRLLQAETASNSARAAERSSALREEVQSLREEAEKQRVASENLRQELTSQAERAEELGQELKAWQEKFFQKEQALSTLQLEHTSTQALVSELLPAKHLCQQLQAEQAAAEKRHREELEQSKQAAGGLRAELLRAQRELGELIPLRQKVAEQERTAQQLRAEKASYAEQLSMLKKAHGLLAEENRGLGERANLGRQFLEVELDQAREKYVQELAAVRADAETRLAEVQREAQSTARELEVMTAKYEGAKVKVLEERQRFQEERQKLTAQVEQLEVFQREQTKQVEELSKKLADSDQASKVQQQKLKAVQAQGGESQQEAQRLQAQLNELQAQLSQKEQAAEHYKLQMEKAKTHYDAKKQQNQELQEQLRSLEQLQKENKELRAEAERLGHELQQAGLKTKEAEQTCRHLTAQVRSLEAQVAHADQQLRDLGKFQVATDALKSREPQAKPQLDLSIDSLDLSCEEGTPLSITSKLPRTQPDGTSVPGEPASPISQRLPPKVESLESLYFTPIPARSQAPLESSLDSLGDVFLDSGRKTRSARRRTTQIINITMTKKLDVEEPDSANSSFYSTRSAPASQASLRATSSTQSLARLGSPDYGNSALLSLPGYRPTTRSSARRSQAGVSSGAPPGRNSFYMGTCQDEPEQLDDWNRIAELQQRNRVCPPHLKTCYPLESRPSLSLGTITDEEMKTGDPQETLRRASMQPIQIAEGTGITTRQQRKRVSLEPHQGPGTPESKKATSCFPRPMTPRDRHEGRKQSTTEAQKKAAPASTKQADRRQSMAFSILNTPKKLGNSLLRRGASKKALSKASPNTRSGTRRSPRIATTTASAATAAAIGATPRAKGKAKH
UniProt P08754: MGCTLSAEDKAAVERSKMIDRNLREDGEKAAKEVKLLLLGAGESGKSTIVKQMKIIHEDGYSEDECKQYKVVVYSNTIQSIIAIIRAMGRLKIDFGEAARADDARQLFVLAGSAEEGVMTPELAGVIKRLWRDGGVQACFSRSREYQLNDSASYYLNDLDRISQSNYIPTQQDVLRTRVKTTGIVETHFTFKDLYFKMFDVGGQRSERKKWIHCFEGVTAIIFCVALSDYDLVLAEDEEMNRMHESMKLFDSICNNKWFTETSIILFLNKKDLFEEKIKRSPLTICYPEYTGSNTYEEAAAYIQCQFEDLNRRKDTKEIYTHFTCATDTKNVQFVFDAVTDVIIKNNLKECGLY

Test [1] concerns the target T1, activator of G protein signaling 3 (AGS3), endogenous in ENStem-A cells (human (endogenous in ENStem-A)) (UniProt Q86YR5).
T1 sequence: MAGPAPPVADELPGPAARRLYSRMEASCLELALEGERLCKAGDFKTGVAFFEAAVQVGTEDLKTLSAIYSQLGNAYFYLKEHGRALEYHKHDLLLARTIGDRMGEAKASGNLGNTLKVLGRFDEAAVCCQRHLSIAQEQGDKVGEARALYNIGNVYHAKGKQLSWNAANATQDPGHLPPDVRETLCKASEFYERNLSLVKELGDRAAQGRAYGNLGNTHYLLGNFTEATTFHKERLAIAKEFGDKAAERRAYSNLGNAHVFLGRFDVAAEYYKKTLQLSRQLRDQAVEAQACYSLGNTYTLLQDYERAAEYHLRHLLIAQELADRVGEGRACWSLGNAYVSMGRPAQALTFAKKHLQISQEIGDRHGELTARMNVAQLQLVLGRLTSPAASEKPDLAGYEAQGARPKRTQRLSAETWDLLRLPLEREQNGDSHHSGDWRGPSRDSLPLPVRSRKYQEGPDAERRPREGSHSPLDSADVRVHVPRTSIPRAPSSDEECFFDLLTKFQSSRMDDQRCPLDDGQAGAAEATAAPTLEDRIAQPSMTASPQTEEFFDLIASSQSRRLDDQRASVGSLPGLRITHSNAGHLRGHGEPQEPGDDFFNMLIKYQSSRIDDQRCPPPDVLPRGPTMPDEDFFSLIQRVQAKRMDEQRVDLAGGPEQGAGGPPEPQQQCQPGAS
The experiment in a line: co-IP; endogenous proteins; lysates of ENStem-A cells after 7 days of differentiation (Day 0 sample run alongside), equivalent amount of AGS3; anti-AGS3 antiserum, then protein G agarose; Western blot with antisera against Gαi2, Gαi3 or NuMA. Background: Immunoblotting shows a protein as a band on a membrane.

The next test deals with T2, GFP-tagged LGN (UniProt P81274).
T2 sequence: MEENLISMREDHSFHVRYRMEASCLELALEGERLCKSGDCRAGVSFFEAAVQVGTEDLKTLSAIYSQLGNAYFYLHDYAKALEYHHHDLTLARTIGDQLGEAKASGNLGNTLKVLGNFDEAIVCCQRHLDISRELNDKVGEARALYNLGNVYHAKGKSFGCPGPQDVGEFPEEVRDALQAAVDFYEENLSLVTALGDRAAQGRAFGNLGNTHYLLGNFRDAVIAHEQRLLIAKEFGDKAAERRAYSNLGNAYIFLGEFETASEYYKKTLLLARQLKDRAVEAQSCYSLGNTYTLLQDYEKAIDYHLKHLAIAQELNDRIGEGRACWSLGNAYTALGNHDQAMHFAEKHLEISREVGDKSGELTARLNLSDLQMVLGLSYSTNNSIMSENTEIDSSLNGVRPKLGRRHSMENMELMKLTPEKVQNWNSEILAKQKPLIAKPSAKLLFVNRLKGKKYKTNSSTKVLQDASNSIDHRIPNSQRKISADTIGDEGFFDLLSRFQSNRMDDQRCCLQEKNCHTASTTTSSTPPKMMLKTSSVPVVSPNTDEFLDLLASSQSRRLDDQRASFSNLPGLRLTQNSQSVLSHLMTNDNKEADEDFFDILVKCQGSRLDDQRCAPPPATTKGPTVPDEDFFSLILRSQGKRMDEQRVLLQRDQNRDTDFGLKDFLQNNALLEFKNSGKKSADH
Briefly: co-IP; HEK293 cells transiently co-transfected with a tagged bait (GST-AGS3, GFP-LGN, HA-NuMA or HA-Ric-8A) and Gαi2 or Gαi3; cells with or without PTX (100 ng/mL, 16 h); lysates untreated or treated with GDPβS or GTPγS (100 μM, 6 h at 4 °C); anti-GST or anti-GFP antisera with protein G agarose, or anti-HA agarose; Western blot (Figure 4B-D).

In the next test the target is HA-tagged NuMA (UniProt Q14980). Described as above.
The target in test [2] is T3, HA-tagged mouse Ric-8A (mouse) (UniProt Q3TIR3).
T3 sequence: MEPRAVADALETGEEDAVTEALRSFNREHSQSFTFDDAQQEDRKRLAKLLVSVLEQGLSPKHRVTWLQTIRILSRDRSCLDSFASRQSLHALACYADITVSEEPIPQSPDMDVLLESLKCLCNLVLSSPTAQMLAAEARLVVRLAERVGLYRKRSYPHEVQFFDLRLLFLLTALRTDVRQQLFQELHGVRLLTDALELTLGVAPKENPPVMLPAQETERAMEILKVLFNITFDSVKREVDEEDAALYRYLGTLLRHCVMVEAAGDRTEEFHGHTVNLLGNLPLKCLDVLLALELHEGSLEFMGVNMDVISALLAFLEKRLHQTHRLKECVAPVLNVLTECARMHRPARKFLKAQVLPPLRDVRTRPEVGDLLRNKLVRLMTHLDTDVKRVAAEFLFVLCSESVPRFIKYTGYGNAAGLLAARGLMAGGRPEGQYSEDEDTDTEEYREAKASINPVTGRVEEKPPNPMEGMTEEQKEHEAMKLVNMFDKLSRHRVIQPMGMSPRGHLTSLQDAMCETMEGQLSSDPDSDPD
The description is as above.

These are yes or no findings as the source states them, for the method shown. In cells and extracts the contact can be indirect. Some results given as binding are weak or reduced against the parent protein; the word gives no strength. For some of these results: Tags and fused reporters may be left off the sequences shown.

“nuclear mitotic apparatus (NuMA), endogenous in ENStem-A cells (from UniProt Q14980 1-2115)”: in test [1], the binding entry was “binds”.

Turning to “Gαi3 subunit, overexpressed in HEK293 cells (from UniProt P08754 1-354)”, the binding entry is “binds” with GFP-tagged LGN, “no binding” with HA-tagged NuMA and “binds” in test [2].
